Test results taken from patent US20200256860A1, “PRINTABLE HYDROGELS FOR BIOMOLECULE IMMOBILIZATION AND STABILIZATION” (priority 2019, published 2020).
At least one compound was matched to its structure with a doubt left.

The chains behind the UniProt entries cited, without tags or fusion partners. Residues count along the entry.
UniProt P62593, 24-286 limits assumed: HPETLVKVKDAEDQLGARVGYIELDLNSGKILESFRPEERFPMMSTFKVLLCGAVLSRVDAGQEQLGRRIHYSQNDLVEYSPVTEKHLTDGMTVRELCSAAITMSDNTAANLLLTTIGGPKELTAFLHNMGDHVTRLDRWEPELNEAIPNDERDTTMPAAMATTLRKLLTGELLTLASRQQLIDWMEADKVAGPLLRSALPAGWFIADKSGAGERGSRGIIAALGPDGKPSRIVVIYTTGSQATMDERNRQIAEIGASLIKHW

Key:
TEM-1 β-lactamase [1] = target: T1, TEM-1 β-lactamase (Escherichia coli, UniProt P62593); assay type: biochemical; conditions: promiscuous aggregating inhibitors, printed hydrogel array, starting concentration 100 μM
Description: Images were taken with a Canon DSLR camera (operated in manual focus mode without flash) after 25 min. […] Extracted images were inverted and converted to 8 bit grayscale images. […] Calculation of IC50 values was carried out in OriginPro by plotting the calculated percentage inhibition against the added inhibitor concentration.
Intensity distributions are measured using dynamic light scattering (normalized to maximum intensity).

TEM-1 β-lactamase [2] = target: T1, TEM-1 β-lactamase; assay type: biochemical; conditions: promiscuous aggregating inhibitors
[3] = Aggregate size and polydispersity by dynamic light scattering; assay type: physicochemical; conditions: 100 μM solutions, DLS
Description: Following, to assess the capacity of the printed hydrogels to differentiate between specific and non-specific inhibition, the confirmed promiscuous inhibitors rottlerin and BIS IX (both kinase inhibitors) and tetraiodophenolphthalein (TIPT, another established aggregate forming compound) were tested against TEM-1 β-lactamase (an isoform of β-lactamase) both in solution (modeling a conventional microplate assay) and using a printed hydrogel array. […] In this way, the size selectivity of the printed hydrogel layer excludes the promiscuous inhibitors from accessing the enzyme encapsulated in the hydrogel and thus avoids the false positive hits observed in solution assays. […] Intensity distributions are measured using dynamic light scattering (normalized to maximum intensity).

## O=C1OC(c2cc(I)c(O)c(I)c2)(c2c(I)cc(O)cc2I)c2ccccc21 (stereo not shown) [TIPT, tetraiodophenolphthalein]
TEM-1 β-lactamase [1]
  Inhibition of β-lactamase in the hydrogel-based assay: no specific inhibition
TEM-1 β-lactamase [2]
  Inhibition of β-lactamase in the solution-based assay: inhibited β-lactamase
[3]
  Aggregate size: 154 ± 1 nm
  Polydispersity: 0.16 ± 0.02
